Laboratory results published in PubChem BioAssay AID2685 (National Center for Advancing Translational Sciences (NCATS), 2010).
This is one part of the list. The main result of the screen is listed elsewhere. These columns were measured beside it and carry no call. Most of these compounds were active or inconclusive in the main read-out, so they are no random draw. The note in brackets gives the kind of curve behind each potency; many fits are weak.

Test: qHTS Assay for Lipid Storage Modulators in Drosophila S3 Cells;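 for cell number change: cells counted by Cell Tracker Red CMTPX staining in the red channel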
Settings: BODIPY lipid droplet fluorescence, 18-24 h; for cell number change: measured here: cell count max response, cells fed with added oleic acid
Summary of the method: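 Laser-scanning cytometry quantifies lipid droplet accumulation (500–530 nm total intensity; droplet/cell object ratio) in oleic acid-fed (400 uM added) Drosophila S3 cells treated with a concentration series. 20 uM Triacsin C defined 100% inhibition.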

[1] = measured here: lipid fluorescence (Fed channel) AC50, cells fed with added oleic acid
[2] = measured here: cell number channel AC50, cells fed with added oleic acid

| SMILES | cell number change [%] | AC50 [1] | AC50 [2] |
| --- | --- | --- | --- |
| CCO/C=C/C(O)(CNC(=O)c1ccc(C(C)(C)C)cc1)C(F)(F)F (stereo not given) | 0.967 |  |  |
| O=C(COc1ccc2c(c1)OCO2)Nc1nccs1 | -9.52 | 0.206 µM [falling, single point] |  |
| COc1cc(/C=C/c2ccc3cccc(O)c3n2)c(Br)cc1O | 20.4 | 6.51 µM [falling, single point] |  |
| COc1ccc(-c2noc(CN(C(=O)c3ccc(OC(C)=O)cc3)C(C)C)n2)cc1OC |  | 6.51 µM [rising, single point] | 6.51 µM [falling, single point] |
| Cc1cccc(N2CC(C(=O)Nc3nnc(SCC(=O)N4CCOCC4)s3)CC2=O)c1 (stereo not given) | 41.2 | 35.5 µM [rising, partial curve, poor fit] | 20 µM [rising, single point] |
| CCOc1cc(/C=N/NC(=O)c2ccccc2OCc2ccc(F)cc2)ccc1O | -30.1 |  | 23.1 µM [falling, single point] |
| CCOC(=O)Cn1c(-c2ccc(Cl)nc2)nc2ccccc21 |  | 3.66 µM [falling, full curve] |  |
| c1ccc(-c2noc(-c3ccc4c(c3)OCO4)n2)cc1 | 25.8 |  |  |
| O=C(NCCc1ccccc1)c1cnn2c(C(F)F)cc(C3CC3)nc12 | 37.3 | 0.82 µM [rising, full curve] | 0.92 µM [rising, full curve, poor fit] |
| Cc1cc(CNC(=O)C(C)Cc2ccccc2)nn1C (stereo not given) | 19.2 | 0.13 µM [falling, full curve, poor fit] |  |
| O=C(Nc1n[nH]c(C(F)(F)F)n1)C1CC1 | -4.74 | 0.0326 µM [falling, full curve, poor fit] |  |
| O=C(CN(C(=O)Cn1nnc(-c2ccc(F)cc2)n1)c1cccc(F)c1)NC1CCCC1 | 36.8 |  | 5.8 µM [rising, partial curve, poor fit] |
| O=C(Nc1cc(=O)[nH]c(=O)[nH]1)c1cccc(Br)c1 | -51.9 | 29.1 µM [falling, single point] | 18.4 µM [falling, single point] |
| O=S(=O)(NCCCCNS(=O)(=O)c1c(F)cccc1F)c1ccc2c(c1)OCCO2 | -3.81 | 5.17 µM [falling, single point] |  |
| CC(C)(C)NC(=O)COc1ccccc1C#N |  | 0.164 µM [falling, full curve] |  |
| Cc1ccc(C2CC(c3ccco3)n3ncnc3N2)cc1 (stereo not given) | 30.2 | 3.66 µM [rising, single point] | 6.51 µM [rising, single point] |
| CCC(C)n1c(SCC(=O)/C(C#N)=C(\C)N)nc2ccccc2c1=O (stereo not given) | -2.22 |  |  |
| Cc1ccc(S(=O)(=O)Nc2ccc3ncccc3c2)cc1 | -25.3 | 8.2 µM [falling, partial curve] |  |
| CC(C)c1nc(N2CCCC2)c(C#N)c2c1CCCC2 |  |  | 0.164 µM [falling, full curve, poor fit] |

| SMILES | cell number change [%] | AC50 [1] | AC50 [2] |
| --- | --- | --- | --- |
| COc1ccc(/C=N/Nc2cc(C)nc(-n3nc(C)cc3C)n2)cc1 | -69.8 | 0.058 µM [falling, full curve, poor fit] | 18.4 µM [falling, partial curve] |
| CCc1ccc(S(=O)(=O)c2ccc(-n3nc(C)cc3N)cc2)cc1 | 39.4 | 6.51 µM [rising, single point] | 8.2 µM [rising, partial curve, poor fit] |
| CO/N=C\CC(=O)Nc1ccc(F)cc1 | -104 | 14.6 µM [falling, partial curve] | 14.6 µM [falling, partial curve] |
| COc1ccc(/C=C2/C(=N)N3N=C(CC(=O)N4CCCC4)SC3=NC2=O)cc1OC | 31.5 | 29.1 µM [rising, single point] | 14.6 µM [rising, partial curve, poor fit] |
| Cc1cccc(NC(=O)/C(C#N)=C/c2ccc(Sc3ccccc3)o2)c1C | 11 | 3.26 µM [falling, single point] |  |
| COc1cc(CO)ccc1Oc1nnnn1-c1ccc(C(N)=O)cc1 | -4.65 | 0.0326 µM [falling, full curve, poor fit] |  |
| CCOC(=O)c1c(C2COc3ccccc3O2)csc1NC(=O)c1ccccc1 (stereo not given) | 87.5 | 2.31 µM [rising, partial curve] | 0.411 µM [rising, partial curve, poor fit] |
| COc1ccc(OC)c(/C=C2\NC(=O)NC2=O)c1 | -14.9 | 6.51 µM [rising, partial curve, poor fit] |  |
| CC1=[N+](CC(=O)c2ccccc2)CCn2cccc21 | -2.44 |  | 0.651 µM [falling, full curve, poor fit] |
| C=CCn1c(SCC(=O)N(C)C)nc2sc3c(c2c1=O)CCC3 | 1.83 | 0.517 µM [falling, single point] |  |
| COc1ccc(-c2nnc(SC(C)C(=O)Nc3c(C)n(C)n(-c4ccccc4)c3=O)o2)cc1 (stereo not given) | -25 | 14.6 µM [falling, single point] |  |
| Cc1ccc(/C=C/C(=O)NN2CCN(C)CC2)cc1 | 14.7 | 29.1 µM [rising, single point] |  |
| CS(=O)(=O)Nc1ccc(C(=O)NCc2cccnc2)cc1 | -7.34 | 29.1 µM [falling, single point] |  |
| Oc1ccc(O)c(Cc2nc3ccccc3[nH]2)c1 | 1.88 |  | 6.51 µM [falling, single point] |
| CC(=O)NCCc1nc2cc(NC(=O)c3ccc(F)cc3)ccc2n1C | 2.84 |  |  |
| CC1=C2C(CCS2(=O)=O)CC2(C1)C(=O)OC(C)(C)OC2=O (stereo not given) | -36.6 | 0.731 µM [falling, full curve] | 0.731 µM [falling, full curve] |
| COc1cccc2cc(/C(C)=N/NC(=O)c3ccco3)oc12 | -25.7 | 0.651 µM [falling, full curve] |  |
| Cc1ccc(NC(=O)c2ccc(F)cc2)cc1S(=O)(=O)N1CCCCCC1 | 4.24 | 4.11 µM [rising, single point] | 6.51 µM [rising, partial curve, poor fit] |
| C=Cc1cccc(NC(=O)c2ccc(NC(=O)c3ccco3)cc2)c1 | -19.8 | 6.51 µM [falling, single point] | 4.11 µM [falling, single point] |

| SMILES | cell number change [%] | AC50 [1] | AC50 [2] |
| --- | --- | --- | --- |
| Cc1sc(NC(=O)CSc2ncn(-c3ccccc3)n2)nc1-c1ccccc1 | -31.9 | 29.1 µM [falling, single point] | 29.1 µM [falling, single point] |
| NC(=O)c1ccsc1NC(=O)COC(=O)C1=NNC(=O)CC1 | 21.2 | 5.8 µM [falling, partial curve] | 0.082 µM [rising, full curve] |
| O=C(CN1C(=O)NC2(CCCC2)C1=O)OCc1cccc(Br)c1 | 11.1 | 29.1 µM [falling, single point] | 0.146 µM [falling, full curve, poor fit] |
| CS(=O)(=O)c1ccc(C(=O)NCCN2C(=O)S/C(=C\c3cccnc3)C2=O)cc1[N+](=O)[O-] | -22.8 | 0.092 µM [falling, full curve] | 0.116 µM [falling, full curve, poor fit] |
| O=C(Nc1ccccc1)C1CC2CCCC(C1)C2=O (stereo not given) | -19 | 29.1 µM [falling, single point] |  |
| CCCCCCC(=O)N=Nc1c(O)[nH]c2ccc([N+](=O)[O-])cc12 | 11.5 | 18.4 µM [rising, single point] |  |
| CCN(CC)C(=O)CN1CCC(c2nc3cc(C)c(C)cc3[nH]2)CC1 | 22.3 | 3.26 µM [falling, single point] |  |
| COc1cc(N)c(Cl)cc1C(=O)OCC(=O)NC1CCCC1 | -10.8 |  |  |
| CCOC(=O)c1c(NC(=O)C(C)Sc2cccc[n+]2[O-])sc2c1CCN(Cc1ccccc1)C2 (stereo not given) | -11.2 | 32.6 µM [falling, single point] |  |
| O=C(Nc1ccc2c(c1)OCCO2)C1CCCN1S(=O)(=O)c1ccc(Cl)cc1 (stereo not given) | 13.9 | 6.51 µM [rising, single point] |  |
| CCC(=O)NCCn1ccc2ccccc21 |  | 1.3 µM [falling, partial curve] | 0.0259 µM [falling, full curve, poor fit] |
| Cc1cc(SCC(=O)NCCCN2CCCC2=O)nc2ccccc12 | -6.95 | 6.51 µM [rising, single point] |  |
| Cc1ccc(S(=O)(=O)NCC2CCCO2)cc1 (stereo not given) | 18.9 | 29.1 µM [rising, single point] |  |
| COc1ccc(CCNc2ncnc3c2nnn3Cc2ccccc2)cc1 | -5.87 |  |  |
| CCN(CC)S(=O)(=O)c1ccc(N2CCOCC2)c(NC(=O)CC2OC(=O)c3ccccc32)c1 (stereo not given) | -9.45 | 11.6 µM [falling, partial curve] |  |
| O=C(CCC(=O)N1CCOc2ccccc21)NCCCN1CCOCC1 | 18.7 |  |  |
| O=C(CCNS(=O)(=O)c1c(Cl)cccc1Cl)OCC(=O)c1ccccc1F |  |  | 6.51 µM [rising, partial curve] |
| Cc1ccc(C(=O)NCC(=O)Nc2ccc(C)c(S(=O)(=O)Nc3ccc(Cl)cc3)c2)s1 | 28.9 | 3.26 µM [rising, full curve] |  |
| CCOc1ccc2[nH]c(=O)c(CN(Cc3ccco3)C(=O)c3ccc(Br)cc3)cc2c1 | -40.9 | 32.6 µM [falling, single point] | 18.4 µM [falling, single point] |

Exported in CSV form: entries from further up
SMILES,cell number change [%],AC50 [1],AC50 [2]
O=C(Nc1cc(=O)[nH]c(=O)[nH]1)c1cccc(Br)c1,-51.9,"29.1 µM [falling, single point]","18.4 µM [falling, single point]"
O=S(=O)(NCCCCNS(=O)(=O)c1c(F)cccc1F)c1ccc2c(c1)OCCO2,-3.81,"5.17 µM [falling, single point]",
CC(C)(C)NC(=O)COc1ccccc1C#N,,"0.164 µM [falling, full curve]",
